PubChem BioAssay AID1259308 | NCATS | 2017
Aim: 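Genes whose loss raises luciferase production in HEK293 cells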 (primary screen). Cells: human HEK293 embryonic kidney cells stably expressing firefly luciferase (HEK-CMV-Luc2-Hygro). Reagents: single siRNA against human genes, 0.8 pmol siRNA per well. Timing: 72 h. Measurement: 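Luciferase light (ONE-Glo) measured on one replicate plate set and viability (CellTiter-Glo) on the other, scaled to a negative control siRNA, with robust z-scores and luciferase per cell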. Reading the numbers: total luciferase, z-score and total luciferase, % of control: higher = more reporter protein produced; luciferase per cell, z-score: higher = more reporter output per viable cell; viable cells, % of control: higher = more viable cells. Active means: 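An siRNA counts as active if its total luciferase robust z-score exceeds 3; genes with two or more such siRNAs out of three were retested with fresh siRNAs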. Calls: active = raised luciferase; inactive = no rise.
The whole screen tested about 59,000 reagents; below is a part drawn at random. About 1,510 of all reagents (2.6%) were called active. 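Calls use total luciferase alone and ignore viability, so some active siRNAs may act by altering cell number.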 Reagents against one gene are numbered here. Reagent sequences are not shown.

gene knocked down	siRNA no.	total luciferase, z-score	total luciferase, % of control	luciferase per cell, z-score	viable cells, % of control	call
C5orf24	1	0.472	91.3	0.991	78.6	inactive
C5orf24	2	-1.77	46.6	-0.839	65	inactive
C5orf24	3	-0.576	70.4	0.0424	77.8	inactive
GINS2	1	-0.454	72.9	0.429	72.7	inactive
GINS2	2	0.523	92.3	-0.0885	106	inactive
GINS2	3	1.14	105	1.36	81.7	inactive
METTL14	1	-0.674	68.5	-0.356	84	inactive
METTL14	2	0.669	95.2	0.566	91.6	inactive
METTL14	3	-1.14	59.3	-1.47	97.6	inactive
EPX	1	-1.16	58.8	-1.25	91.1	inactive
EPX	2	0.128	84.4	1.91	57	inactive
EPX	3	0.536	92.5	-0.202	109	inactive
ASPHD2	1	-0.461	72.7	0.133	78.5	inactive
ASPHD2	2	-0.6	70	-0.714	94.4	inactive
ASPHD2	3	-1.56	50.8	-1.69	88.5	inactive
DAGLB	1	0.247	86.8	0.0974	94.5	inactive
DAGLB	2	-1.36	54.9	-1.52	91.6	inactive
DAGLB	3	-2.62	29.8	-1.02	43.6	inactive
EIF3G	1	-1.72	47.6	-0.338	58.2	inactive
EIF3G	2	-2.51	32.1	-2.48	68.8	inactive
EIF3G	3	-2.86	25	-4	80.1	inactive
TFDP3	1	0.995	102	0.986	87.6	inactive
TFDP3	2	0.638	94.6	-0.191	111	inactive
TFDP3	3	0.604	93.9	0.922	82.3	inactive
USE1	1	-1.44	53.3	-0.987	77.3	inactive
USE1	2	0.468	91.2	0.562	87.9	inactive
USE1	3	1.32	108	1.15	89.3	inactive
STRBP	1	1.86	119	0.0843	130	inactive
STRBP	2	-0.0144	81.6	-0.809	113	inactive
STRBP	3	-1.26	56.7	-1.59	96.4	inactive
PTGER1	1	0.0544	83	0.621	78.7	inactive
PTGER1	2	0.0194	82.3	-0.801	114	inactive
PTGER1	3	0.39	89.6	0.436	89.3	inactive
EFS	1	-0.443	73.1	0.515	71.3	inactive
EFS	2	-0.473	72.5	-0.586	94.5	inactive
EFS	3	-0.368	74.6	-0.114	85.9	inactive
CCDC22	1	2.69	135	1.44	104	inactive
CCDC22	2	-0.1	79.9	0.0673	87.7	inactive
CCDC22	3	-0.535	71.2	-1.08	106	inactive
ZNF527	1	-2.01	42	-1.09	62.5	inactive
ZNF527	2	0.0443	82.8	-0.372	102	inactive
ZNF527	3	1.32	108	2.01	71.1	inactive
DHX29	1	0.323	88.3	0.666	82.8	inactive
DHX29	2	-0.981	62.4	0.855	55.6	inactive
DHX29	3	1.31	108	1.18	88.5	inactive
ALG14	1	-0.833	65.3	0.847	58.4	inactive
ALG14	2	0.237	86.6	0.375	87.7	inactive
ALG14	3	1.03	102	-0.108	118	inactive
CCDC47	1	-0.667	68.6	-0.268	82.3	inactive
CCDC47	2	-0.0421	81	0.101	88.2	inactive
CCDC47	3	-0.267	76.6	-0.93	109	inactive
LOC284009	1	1.19	106	0.871	93.8	inactive
LOC284009	2	0.966	101	0.535	98.1	inactive
LOC284009	3	0.218	86.2	0.0989	93.9	inactive
GBA3	1	0.838	98.6	0.528	95.8	inactive
GBA3	2	2.11	124	1.36	96.8	inactive
GBA3	3	-0.0314	81.3	-0.691	109	inactive
KRTAP23-1	1	-0.526	71.4	-0.583	93.1	inactive
KRTAP23-1	2	-1.66	48.8	-1.39	78.7	inactive
KRTAP23-1	3	-1.65	49.1	-1.21	75.4	inactive
WDR82P1	1	-0.267	76.6	0.66	71.9	inactive
WDR82P1	2	-0.239	77.1	1.22	62.6	inactive
WDR82P1	3	-0.713	67.7	-0.104	77.8	inactive
DTD1	1	-0.102	79.9	-1.07	118	inactive
DTD1	2	-1.79	46.2	-1.26	71.8	inactive
DTD1	3	-1.73	47.4	-0.995	68.9	inactive
LINC02297	1	0.891	99.6	0.433	99.3	inactive
LINC02297	2	2.11	124	1.63	90	inactive
LINC02297	3	-0.395	74	-0.803	102	inactive
PIN4P1	1	1.91	120	1.8	83.4	inactive
PIN4P1	2	1.55	113	1.45	86.1	inactive
PIN4P1	3	-1.16	58.8	-0.985	85.2	inactive
LINC00290	1	-0.164	78.6	-0.583	102	inactive
LINC00290	2	2.02	122	1.42	93.9	inactive
LINC00290	3	0.389	89.6	0.557	86.5	inactive

3 entries from above, sorted by “viable cells, % of control”, low to high.
gene knocked down	siRNA no.	total luciferase, z-score	total luciferase, % of control	luciferase per cell, z-score	viable cells, % of control	call
USE1	1	-1.44	53.3	-0.987	77.3	inactive
TFDP3	3	0.604	93.9	0.922	82.3	inactive
USE1	2	0.468	91.2	0.562	87.9	inactive
